Experimental data taken from paper PMC7378325.
Results are given in words; binding and its absence hold for the method and conditions named. Binding seen in cells or lysates may run through a third protein. Some binding calls cover weakened binding; strength is not graded here. Tags and fused reporters may be left off the sequences shown.

Chains of the proteins cited; added tags and fusions are not shown. Residues count along the entry.
UniProt Q9Z0U4, residues 20-960: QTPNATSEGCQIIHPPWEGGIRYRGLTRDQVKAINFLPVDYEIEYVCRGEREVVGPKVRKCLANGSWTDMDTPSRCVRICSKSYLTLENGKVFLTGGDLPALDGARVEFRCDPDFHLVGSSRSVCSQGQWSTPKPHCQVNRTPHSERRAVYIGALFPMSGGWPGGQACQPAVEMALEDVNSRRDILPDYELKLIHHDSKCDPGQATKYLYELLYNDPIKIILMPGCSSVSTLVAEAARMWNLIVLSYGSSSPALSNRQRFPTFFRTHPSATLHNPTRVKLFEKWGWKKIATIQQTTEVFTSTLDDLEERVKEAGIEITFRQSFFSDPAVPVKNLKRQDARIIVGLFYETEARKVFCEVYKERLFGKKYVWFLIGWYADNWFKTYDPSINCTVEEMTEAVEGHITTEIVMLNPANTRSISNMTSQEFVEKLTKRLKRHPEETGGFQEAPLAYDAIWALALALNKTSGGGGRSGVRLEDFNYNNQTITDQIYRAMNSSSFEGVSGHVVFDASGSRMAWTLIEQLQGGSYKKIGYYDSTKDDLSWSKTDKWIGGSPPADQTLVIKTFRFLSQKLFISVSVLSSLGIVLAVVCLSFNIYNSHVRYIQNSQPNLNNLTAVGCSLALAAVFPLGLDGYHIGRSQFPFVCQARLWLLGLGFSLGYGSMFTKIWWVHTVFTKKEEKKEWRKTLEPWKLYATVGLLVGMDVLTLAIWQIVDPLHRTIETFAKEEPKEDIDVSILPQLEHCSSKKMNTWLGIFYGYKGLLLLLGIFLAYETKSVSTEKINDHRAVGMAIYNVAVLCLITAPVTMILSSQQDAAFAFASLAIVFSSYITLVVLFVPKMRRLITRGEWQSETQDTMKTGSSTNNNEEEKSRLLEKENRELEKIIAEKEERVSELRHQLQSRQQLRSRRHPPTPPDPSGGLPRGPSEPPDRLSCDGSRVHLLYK

Experiments:
Fibulin-2-Flag = molecular target: T1, Fibulin-2-Flag (UniProt P37889); assay: co-IP; COS-7 cells triple transfected with myc-GABAB1a or myc-GABAB1b, HA-GABAB2 and fibulin-2-Flag; extract in PBS with 1% CHAPS, 25 mM Hepes, 150 mM NaCl, pH 7.4; IP with anti-myc or anti-flag, Western blot
T1 sequence: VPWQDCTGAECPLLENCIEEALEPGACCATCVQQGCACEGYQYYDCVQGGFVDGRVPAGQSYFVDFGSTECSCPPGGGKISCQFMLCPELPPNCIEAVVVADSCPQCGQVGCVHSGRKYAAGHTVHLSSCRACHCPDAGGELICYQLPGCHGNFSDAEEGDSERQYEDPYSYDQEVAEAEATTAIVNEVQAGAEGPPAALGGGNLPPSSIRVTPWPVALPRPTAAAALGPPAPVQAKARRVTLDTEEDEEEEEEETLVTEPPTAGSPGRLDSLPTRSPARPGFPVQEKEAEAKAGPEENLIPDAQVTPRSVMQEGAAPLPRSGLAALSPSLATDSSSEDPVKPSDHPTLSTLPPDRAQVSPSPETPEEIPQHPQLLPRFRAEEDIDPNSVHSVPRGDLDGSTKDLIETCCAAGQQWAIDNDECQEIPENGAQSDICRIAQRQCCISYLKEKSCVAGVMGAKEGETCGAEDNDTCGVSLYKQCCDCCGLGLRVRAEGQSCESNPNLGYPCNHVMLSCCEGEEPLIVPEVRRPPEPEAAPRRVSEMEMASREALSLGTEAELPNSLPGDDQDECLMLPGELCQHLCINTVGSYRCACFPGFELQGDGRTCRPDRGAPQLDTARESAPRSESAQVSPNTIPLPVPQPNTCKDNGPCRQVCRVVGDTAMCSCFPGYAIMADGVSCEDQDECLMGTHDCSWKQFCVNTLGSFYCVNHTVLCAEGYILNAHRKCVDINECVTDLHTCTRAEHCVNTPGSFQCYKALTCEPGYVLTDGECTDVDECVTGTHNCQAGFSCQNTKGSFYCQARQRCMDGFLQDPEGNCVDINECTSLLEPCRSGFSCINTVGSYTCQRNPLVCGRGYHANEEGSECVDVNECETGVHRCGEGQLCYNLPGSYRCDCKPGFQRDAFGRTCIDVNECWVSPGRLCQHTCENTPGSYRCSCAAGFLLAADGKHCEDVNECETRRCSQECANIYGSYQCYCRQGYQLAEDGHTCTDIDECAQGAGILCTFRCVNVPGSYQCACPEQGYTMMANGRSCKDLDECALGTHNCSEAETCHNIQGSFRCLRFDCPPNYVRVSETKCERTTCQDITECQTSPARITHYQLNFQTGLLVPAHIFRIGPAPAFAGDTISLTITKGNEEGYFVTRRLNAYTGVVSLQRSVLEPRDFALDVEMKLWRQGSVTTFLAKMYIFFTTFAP

myc-GABAB1a [1] = molecular target: myc-GABAB1a (UniProt Q9Z0U4); assay: co-IP; COS-7 cells double transfected with myc-GABAB1a and fibulin-2-Flag, without the GABAB2-expressing plasmid; extract in PBS with 1% CHAPS, 25 mM Hepes, 150 mM NaCl, pH 7.4; Western blot
myc-GABAB1a [2] = molecular target: myc-GABAB1a (UniProt Q9Z0U4); assay: co-IP; COS-7 cells triple transfected with myc-GABAB1a or myc-GABAB1b, HA-GABAB2 and fibulin-2-Flag; extract in PBS with 1% CHAPS, 25 mM Hepes, 150 mM NaCl, pH 7.4; IP with anti-myc or anti-flag, Western blot
myc-GABAB1a [3] = molecular target: myc-GABAB1a (UniProt Q9Z0U4); assay: co-IP; COS-7 cells transfected with myc-GABAB1a and HA-GABAB2, with or without fibulin-2-Flag; extract in PBS with 1% CHAPS, 25 mM Hepes, 150 mM NaCl, pH 7.4; Western blot

Molecule: myc-GABAB1a (from UniProt Q9Z0U4 20-960) (receptor)
- binding (Fibulin-2-Flag): binds

B1: Fibulin-2-Flag (protein, UniProt P37889 27-1221)
chain: VPWQDCTGAECPLLENCIEEALEPGACCATCVQQGCACEGYQYYDCVQGGFVDGRVPAGQSYFVDFGSTECSCPPGGGKISCQFMLCPELPPNCIEAVVVADSCPQCGQVGCVHSGRKYAAGHTVHLSSCRACHCPDAGGELICYQLPGCHGNFSDAEEGDSERQYEDPYSYDQEVAEAEATTAIVNEVQAGAEGPPAALGGGNLPPSSIRVTPWPVALPRPTAAAALGPPAPVQAKARRVTLDTEEDEEEEEEETLVTEPPTAGSPGRLDSLPTRSPARPGFPVQEKEAEAKAGPEENLIPDAQVTPRSVMQEGAAPLPRSGLAALSPSLATDSSSEDPVKPSDHPTLSTLPPDRAQVSPSPETPEEIPQHPQLLPRFRAEEDIDPNSVHSVPRGDLDGSTKDLIETCCAAGQQWAIDNDECQEIPENGAQSDICRIAQRQCCISYLKEKSCVAGVMGAKEGETCGAEDNDTCGVSLYKQCCDCCGLGLRVRAEGQSCESNPNLGYPCNHVMLSCCEGEEPLIVPEVRRPPEPEAAPRRVSEMEMASREALSLGTEAELPNSLPGDDQDECLMLPGELCQHLCINTVGSYRCACFPGFELQGDGRTCRPDRGAPQLDTARESAPRSESAQVSPNTIPLPVPQPNTCKDNGPCRQVCRVVGDTAMCSCFPGYAIMADGVSCEDQDECLMGTHDCSWKQFCVNTLGSFYCVNHTVLCAEGYILNAHRKCVDINECVTDLHTCTRAEHCVNTPGSFQCYKALTCEPGYVLTDGECTDVDECVTGTHNCQAGFSCQNTKGSFYCQARQRCMDGFLQDPEGNCVDINECTSLLEPCRSGFSCINTVGSYTCQRNPLVCGRGYHANEEGSECVDVNECETGVHRCGEGQLCYNLPGSYRCDCKPGFQRDAFGRTCIDVNECWVSPGRLCQHTCENTPGSYRCSCAAGFLLAADGKHCEDVNECETRRCSQECANIYGSYQCYCRQGYQLAEDGHTCTDIDECAQGAGILCTFRCVNVPGSYQCACPEQGYTMMANGRSCKDLDECALGTHNCSEAETCHNIQGSFRCLRFDCPPNYVRVSETKCERTTCQDITECQTSPARITHYQLNFQTGLLVPAHIFRIGPAPAFAGDTISLTITKGNEEGYFVTRRLNAYTGVVSLQRSVLEPRDFALDVEMKLWRQGSVTTFLAKMYIFFTTFAP
- binding (myc-GABAB1a [1]): binds
- binding (myc-GABAB1a [2]): binds

B2: HA-GABAB2 (receptor, UniProt O88871 41-940)
chain: WTRGAPRPPPSSPPLSIMGLMPLTKEVAKGSIGRGVLPAVELAIEQIRNESLLRPYFLDLRLYDTECDNAKGLKAFYDAIKYGPNHLMVFGGVCPSVTSIIAESLQGWNLVQLSFAATTPVLADKKKYPYFFRTVPSDNAVNPAILKLLKHFRWRRVGTLTQDVQRFSEVRNDLTGVLYGEDIEISDTESFSNDPCTSVKKLKGNDVRIILGQFDQNMAAKVFCCAFEESMFGSKYQWIIPGWYEPAWWEQVHVEANSSRCLRRSLLAAMEGYIGVDFEPLSSKQIKTISGKTPQQFEREYNSKRSGVGPSKFHGYAYDGIWVIAKTLQRAMETLHASSRHQRIQDFNYTDHTLGKIILNAMNETNFFGVTGQVVFRNGERMGTIKFTQFQDSREVKVGEYNAVADTLEIINDTIRFQGSEPPKDKTIILEQLRKISLPLYSILSALTILGMIMASAFLFFNIKNRNQKLIKMSSPYMNNLIILGGMLSYASIFLFGLDGSFVSEKTFETLCTVRTWILTVGYTTAFGAMFAKTWRVHAIFKNVKMKKKIIKDQKLLVIVGGMLLIDLCILICWQAVDPLRRTVERYSMEPDPAGRDISIRPLLEHCENTHMTIWLGIVYAYKGLLMLFGCFLAWETRNVSIPALNDSKYIGMSVYNVGIMCIIGAAVSFLTRDQPNVQFCIVALVIIFCSTITLCLVFVPKLITLRTNPDAATQNRRFQFTQNQKKEDSKTSTSVTSVNQASTSRLEGLQSENHRLRMKITELDKDLEEVTMQLQDTPEKTTYIKQNHYQELNDILSLGNFTESTDGGKAILKNHLDQNPQLQWNTTEPSRTCKDPIEDINSPEHIQRRLSLQLPILHHAYLPSIGGVDASCVSPCVSPTASPRHRHVPPSFRVMVSGL
- binding (myc-GABAB1a [3]): binds
